Assay results from article PMC12462666.
No constants are given. Whether binding was seen depends on the method and setting. Some entries that bind do so weakly or less than the wild type.

Biological target: T1, RecA (E. coli), P0A7G6
T1 chain: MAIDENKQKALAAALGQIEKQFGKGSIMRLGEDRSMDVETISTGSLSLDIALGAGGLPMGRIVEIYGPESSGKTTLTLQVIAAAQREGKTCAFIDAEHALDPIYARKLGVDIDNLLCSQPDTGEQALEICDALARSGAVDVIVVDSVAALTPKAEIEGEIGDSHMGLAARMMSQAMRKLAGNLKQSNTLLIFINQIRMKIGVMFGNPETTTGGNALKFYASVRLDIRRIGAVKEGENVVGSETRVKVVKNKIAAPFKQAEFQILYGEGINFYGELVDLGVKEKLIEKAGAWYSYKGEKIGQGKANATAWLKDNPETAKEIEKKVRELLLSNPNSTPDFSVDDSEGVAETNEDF
Assay: two-hybrid; bacterial two-hybrid (BACTH, Euromedex): T18 and T25 fragments of adenylate cyclase CyaA in E. coli BTH101; N- and C-terminal fusions; beta-galactosidase activity (ONPG, OD405) normalised to the positive control pKT25-zip + pUT18C-zip; cells grown with 0.5 uM IPTG
Conditions: remark: other sources report otherwise

B1: RecN, P05824 1-553 (protein)
chain: MLAQLTISNFAIVRELEIDFHSGMTVITGETGAGKSIAIDALGLCLGGRAEADMVRTGAARADLCARFSLKDTPAALRWLEENQLEDGHECLLRRVISSDGRSRGFINGTAVPLSQLRELGQLLIQIHGQHAHQLLTKPEHQKFLLDGYANETSLLQEMTARYQLWHQSCRDLAHHQQLSQERAARAELLQYQLKELNEFNPQPGEFEQIDEEYKRLANSGQLLTTSQNALALMADGEDANLQSQLYTAKQLVSELIGMDSKLSGVLDMLEEATIQIAEASDELRHYCDRLDLDPNRLFELEQRISKQISLARKHHVSPEALPQYYQSLLEEQQQLDDQADSQETLALAVTKHHQQALEIARALHQQRQQYAEELAQLITDSMHALSMPHGQFTIDVKFDEHHLGADGADRIEFRVTTNPGQPMQPIAKVASGGELSRIALAIQVITARKMETPALIFDEVDVGISGPTAAVVGKLLRQLGESTQVMCVTHLPQVAGCGHQHYFVSKETDGAMTETHMQSLNKKARLQELARLLGGSEVTRNTLANAKELLAA
For B1, the binding was “binds”.
